The text below walks through data of paper PMC7362644.

Amino acid sequences for entries named in this document (tags omitted). A change or cut given only in a name is not applied to a line headed by its entry. Chains listed by the source or under a name are the forms on record and can include a tag or linker. Residues count along the entry.
UniProt Q6ZWQ0, residues 6343-6767: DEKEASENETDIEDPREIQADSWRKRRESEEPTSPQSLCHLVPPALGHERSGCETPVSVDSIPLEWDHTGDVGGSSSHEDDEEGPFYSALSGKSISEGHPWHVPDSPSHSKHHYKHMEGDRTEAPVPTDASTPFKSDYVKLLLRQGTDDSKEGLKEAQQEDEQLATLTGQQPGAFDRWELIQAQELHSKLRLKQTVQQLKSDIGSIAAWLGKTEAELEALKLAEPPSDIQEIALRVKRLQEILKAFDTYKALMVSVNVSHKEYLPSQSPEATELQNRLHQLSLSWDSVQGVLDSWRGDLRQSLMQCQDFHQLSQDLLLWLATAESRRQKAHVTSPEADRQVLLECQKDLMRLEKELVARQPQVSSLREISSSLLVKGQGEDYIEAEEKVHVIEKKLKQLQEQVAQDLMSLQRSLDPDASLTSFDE
HA-BicD2 WT (Q921C5-2, form named): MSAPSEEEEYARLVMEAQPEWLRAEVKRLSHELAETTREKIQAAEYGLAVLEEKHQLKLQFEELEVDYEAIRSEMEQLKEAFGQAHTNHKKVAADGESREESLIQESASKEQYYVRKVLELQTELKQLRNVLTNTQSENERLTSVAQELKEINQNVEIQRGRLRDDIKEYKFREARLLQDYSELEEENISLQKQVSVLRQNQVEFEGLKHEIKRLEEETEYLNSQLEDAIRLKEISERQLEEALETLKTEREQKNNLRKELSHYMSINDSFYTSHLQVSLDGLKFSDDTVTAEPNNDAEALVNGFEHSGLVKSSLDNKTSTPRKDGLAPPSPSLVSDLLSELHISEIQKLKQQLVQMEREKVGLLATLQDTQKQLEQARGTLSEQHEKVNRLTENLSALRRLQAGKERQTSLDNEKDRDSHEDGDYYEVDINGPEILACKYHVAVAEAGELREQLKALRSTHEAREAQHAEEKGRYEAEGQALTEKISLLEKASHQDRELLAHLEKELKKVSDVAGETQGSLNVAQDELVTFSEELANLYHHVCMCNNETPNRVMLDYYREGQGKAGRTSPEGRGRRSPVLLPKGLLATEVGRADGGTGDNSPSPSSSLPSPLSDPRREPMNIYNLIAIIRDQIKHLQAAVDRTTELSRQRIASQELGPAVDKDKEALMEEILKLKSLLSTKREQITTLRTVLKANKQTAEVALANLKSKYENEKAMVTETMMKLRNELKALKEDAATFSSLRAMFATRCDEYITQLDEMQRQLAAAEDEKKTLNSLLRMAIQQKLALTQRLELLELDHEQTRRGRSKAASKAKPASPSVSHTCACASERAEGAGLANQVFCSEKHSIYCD

These are yes or no findings as the source states them, for the method shown. In cells and extracts the contact can be indirect. Some binding calls cover weakened binding; strength is not graded here.

The assay deals with GST-tagged Nesprin-2 C-terminus (mouse) (UniProt Q6ZWQ0). Kind of assay: pull-down; GST-Nesprin-2 C-terminus on glutathione resin incubated overnight at 4 °C with RIPA lysate of HEK293T cells transfected with HA-BicD2 WT or K775X; Western blot with HA antibody; only the target purified. (A western blot detects proteins with antibodies after separation by electrophoresis.)

Consider “HA-BicD2 WT (from UniProt Q921C5-2 1-851)”, for which the binding result is recorded as “binds”.
